Drawing on patent US20110091477A1, this text covers binding for one molecule.

For experiment [1], the target named is T1, HGFA (Val373-Ser655) (human) (UniProt Q04756).
T1 sequence: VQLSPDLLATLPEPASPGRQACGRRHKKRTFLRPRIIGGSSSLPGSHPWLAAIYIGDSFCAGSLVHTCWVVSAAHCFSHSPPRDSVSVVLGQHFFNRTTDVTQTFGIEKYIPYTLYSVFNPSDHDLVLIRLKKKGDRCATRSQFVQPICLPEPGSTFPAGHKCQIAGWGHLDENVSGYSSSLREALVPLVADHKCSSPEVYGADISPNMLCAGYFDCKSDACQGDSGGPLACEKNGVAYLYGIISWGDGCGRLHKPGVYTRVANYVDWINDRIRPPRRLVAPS
The experiment can be described thus: SPR. (In general: SPR reads the build-up and loss of mass on a sensor chip optically.)

Experiment [2] deals with T1, HGFA (Val373-Ser655) (human). The experiment can be described thus: SPR (BIAcore), Ab40.ΔTrp captured on the chip, HGFA injected in serial dilutions (long injection for steady state).

Results are given in words; binding and its absence hold for the method and conditions named. Some results given as binding are weak or reduced against the parent protein; the word gives no strength.

B1: Ab40.ΔTrp (antibody, V domains shown)
VH: EVQLVESGGGLVQPGGSLRLSCAASGFTFNGTYIHWVRQAPGKGLEWVGGIYPAGGATYYADSVKGRFTISRDNSKNTLYLQMNSLRAEDTAVYYCAKWAWPAFDYWGQGTLVTVSS
VL: DIQMTQSPSSLSASVGDRVTITCRASQDVSTAVAWYQQKPGKAPKLLIYSASFLYSGVPSRFSGSGSGTDFTLTISSLQPEDFATYYCQQSNRAPATFGQGTKVEIKR
With B1, the binding result in experiment [1] and in experiment [2] was “binds” throughout.
